In US8207177B2, “Inhibitors of E1 activating enzymes” (Millennium Pharmaceuticals, Inc., priority 2006, dated 2012):
Some results were stated once for a whole list of compounds, not compound by compound.

biological target: T1, recombinant human NAE enzyme (Homo sapiens, UniProt Q8TBC4); experiment: Nedd8-Activating Enzyme (NAE) HTRF Assay; assay type: biochemical; conditions: threshold statement: less than or equal to 10 μM; 20 μM ATP, 90 minutes at 24° C.
T1 construct: His (N); made in house; host or cells: Sf9 insect cells (baculovirus, Bac-to-Bac), purified on Ni-NTA
T1 sequence (Q8TBC4 1-463): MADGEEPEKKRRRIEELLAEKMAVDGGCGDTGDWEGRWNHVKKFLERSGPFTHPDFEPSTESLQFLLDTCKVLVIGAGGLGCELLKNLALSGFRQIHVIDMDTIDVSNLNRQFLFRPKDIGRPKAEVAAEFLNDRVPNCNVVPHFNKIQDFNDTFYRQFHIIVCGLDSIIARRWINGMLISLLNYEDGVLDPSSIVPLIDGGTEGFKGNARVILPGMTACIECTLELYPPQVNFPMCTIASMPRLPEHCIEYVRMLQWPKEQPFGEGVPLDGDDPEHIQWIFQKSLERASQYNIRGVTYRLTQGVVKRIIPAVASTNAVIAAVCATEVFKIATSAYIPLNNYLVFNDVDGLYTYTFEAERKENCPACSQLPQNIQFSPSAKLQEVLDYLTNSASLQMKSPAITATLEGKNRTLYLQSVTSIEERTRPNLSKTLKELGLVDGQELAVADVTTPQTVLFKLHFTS
T1 sequence (Q13564 1-534 partner): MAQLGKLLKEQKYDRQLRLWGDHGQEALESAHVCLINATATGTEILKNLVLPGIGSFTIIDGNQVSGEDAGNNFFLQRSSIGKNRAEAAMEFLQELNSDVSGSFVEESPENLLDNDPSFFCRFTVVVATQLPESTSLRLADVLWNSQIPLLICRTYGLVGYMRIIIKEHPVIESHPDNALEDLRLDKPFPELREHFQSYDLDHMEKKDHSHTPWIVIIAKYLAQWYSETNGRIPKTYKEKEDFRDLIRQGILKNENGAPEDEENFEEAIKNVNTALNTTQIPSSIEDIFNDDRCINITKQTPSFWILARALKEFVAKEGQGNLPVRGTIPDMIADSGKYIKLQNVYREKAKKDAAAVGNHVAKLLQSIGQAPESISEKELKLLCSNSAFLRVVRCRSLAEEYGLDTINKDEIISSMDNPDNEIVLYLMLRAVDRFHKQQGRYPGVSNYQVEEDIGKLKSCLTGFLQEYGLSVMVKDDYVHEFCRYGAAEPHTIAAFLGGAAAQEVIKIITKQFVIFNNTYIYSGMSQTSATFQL
Protocol: Following manufacturer instructions, baculoviruses were generated with the Bac-to-Bac Expression System (Invitrogen) for the following proteins: untagged NAEα (APPBP1; NP_003896.1), N-terminally His-tagged NAEβ (UBE1C; NP_003959.3), untagged SAEα (SAE1; NP_005491.1), N-terminally His-tagged SAEβ (UBA2; NP_005490.1), N-terminally His-tagged murine UAE (UBE1X; NP_033483). NAEα/His-NAEβ and SAEα/His-SAEβ complexes were generated by co-infection of Sf9 cells, which were harvested after 48 hours. His-mUAE was generated by single infection of Sf9 cells and harvested after 72 hours. Expressed proteins were purified by affinity chromatography (Ni—NTA agarose, Qiagen) using standard buffers. Ubc12 (UBE2M; NP_003960.1), Ubc9 (UBE2I; NP_003336.1), Ubc2 (UBE2A; NP_003327.2) were subcloned into pGEX (Pharmacia) and expressed as N-terminally GST tagged fusion proteins in E. coli. Expressed proteins were purified by conventional affinity chromatography using standard buffers. Nedd8 (NP_006147), Sumo-1 (NP_003343) and Ubiquitin (with optimized codons) were subcloned into pFLAG-2 (Sigma) and expressed as N-terminally Flag tagged fusion proteins in E. coli. Expressed proteins were purified by conventional chromatography using standard buffers. Nedd8-Activating Enzyme (NAE) HTRF Assay. The NAE enzymatic reaction totaled 50 μL and contained 50 mM HEPES (pH 7.5), 0.05% BSA, 5 mM MgCl2, 20 μM ATP, 250 μM GSH, 0.01 μM Ubc12-GST, 0.075 μM Nedd8-Flag and 0.28 nM recombinant human NAE enzyme. The enzymatic reaction mixture, with and without compound inhibitor, was incubated at 24° C. for 90 minutes in a 384-well plate before termination with 25 μL of Stop/Detection buffer (0.1M HEPES pH 7.5, 0.05% Tween20, 20 mM EDTA, 410 mM KF, 0.53 nM Europium-Cryptate labeled monoclonal anti-FLAG M2 antibody (CisBio International) and 8.125 μg/mL PHYCOLINK goat anti-GST allophycocyanin (XL-APC) antibody (Prozyme)). After incubation for 3 hours at 24° C., quantification of the FRET was performed on the Analyst™ HT 96.384 (Molecular Devices).

IC50, ≤ 10 µM:
NS(=O)(=O)OC[C@@H]1C[C@@H](n2ccc3c(NCc4ccc(Cl)cc4)ncnc32)C[C@@H]1O [Compound I-45, ((1S,2S,4R)-4-{4-[(4-chlorobenzyl)amino]-7H-pyrrolo[2,3-d]pyrimidin-7-yl}-2-hydroxycyclopentyl)methyl sulfamate]
Cc1ncnc2c1ccn2[C@@H]1C[C@@H](COS(N)(=O)=O)[C@@H](O)C1 [Compound I-46, [(1S,2S,4R)-2-hydroxy-4-(4-methyl-7H-pyrrolo[2,3-d]pyrimidin-7-yl)cyclopentyl]methyl sulfamate]
NS(=O)(=O)OC[C@@H]1C[C@@H](n2ccc3c(NCc4ccccc4C(F)(F)F)ncnc32)C[C@@H]1O [Compound I-47, [(1S,2S,4R)-2-hydroxy-4-(4-{[2-(trifluoromethyl)benzyl]amino}-7H-pyrrolo-[2,3-d]pyrimidin-7-yl)cyclopentyl]methyl sulfamate]
Cc1cc(Cl)ccc1CNc1ncnc2c1ccn2[C@@H]1C[C@@H](COS(N)(=O)=O)[C@@H](O)C1 [Compound I-48, ((1S,2S,4R)-4-{4-[(4-chloro-2-methylbenzyl)amino]-7H-pyrrolo[2,3-d]pyrimidin-7-yl}-2-hydroxycyclopentyl)methyl sulfamate]
NS(=O)(=O)OC[C@@H]1C[C@@H](n2ccc3c(NCc4ccccc4)ncnc32)C[C@@H]1O [Compound I-49, {(1S,2S,4R)-4-[4-(benzylamino)-7H-pyrrolo[2,3-d]pyrimidin-7-yl]-2-hydroxycyclopentyl}methyl sulfamate]
CC(C)(Cc1ncnc2c1ccn2[C@@H]1C[C@@H](COS(N)(=O)=O)[C@@H](O)C1)c1ccccc1 [Compound I-50, {(1S,2S,4R)-2-hydroxy-4-[4-(2-methyl-2-phenylpropyl)-7H-pyrrolo[2,3-d]-pyrimidin-7-yl]cyclopentyl}methyl sulfamate]
NS(=O)(=O)OC[C@@H]1C[C@@H](n2ccc3c(NCc4cccc(Cl)c4)ncnc32)C[C@@H]1O [Compound I-51, ((1S,2S,4R)-4-{4-[(3-chlorobenzyl)amino]-7H-pyrrolo[2,3-d]pyrimidin-7-yl}-2-hydroxycyclopentyl)methyl sulfamate]
CO[C@H]1Cc2ccccc2[C@H]1Nc1ncnc2c1ccn2[C@@H]1C[C@@H](COS(N)(=O)=O)[C@@H](O)C1 [Compound I-52, [(1S,2S,4R)-2-hydroxy-4-(4-{[(1R,2S)-2-methoxy-2,3-dihydro-1H-inden-1-yl]-amino}-7H-pyrrolo[2,3-d]pyrimidin-7-yl)cyclopentyl]methyl sulfamate]
NS(=O)(=O)OC[C@@H]1C[C@@H](n2ccc3c(Sc4ccccc4)ncnc32)[C@H](O)[C@@H]1O [Compound I-53, {(1S,2R,3S,4R)-2,3-dihydroxy-4-[4-(phenylsulfanyl)-7H-pyrrolo[2,3-d]-pyrimidin-7-yl]cyclopentyl}methyl sulfamate]
CC(C)O[C@H]1Cc2ccccc2[C@H]1Nc1ncnc2c1ccn2[C@@H]1C[C@@H](COS(N)(=O)=O)[C@@H](O)C1 [Compound I-54, [(1S,2S,4R)-2-hydroxy-4-(4-{[(1R,2S)-2-isopropoxy-2,3-dihydro-1H-inden-1-yl]-amino}-7H-pyrrolo[2,3-d]pyrimidin-7-yl)cyclopentyl]methyl sulfamate]
NS(=O)(=O)NC[C@@H]1C[C@@H](n2ccc3c(N[C@H]4CCc5ccccc54)ncnc32)C[C@@H]1O [Compound I-56, N-[((1S,2S,4R)-4-{4-[(1S)-2,3-dihydro-1H-inden-1-ylamino]-7H-pyrrolo[2,3-d]-pyrimidin-7-yl}-2-hydroxycyclopentyl)methyl]sulfamide]
NS(=O)(=O)CC[C@@H]1C[C@@H](n2ccc3c(N[C@H]4CCc5ccccc54)ncnc32)C[C@@H]1O [Compound I-59, 2-((1S,2S,4R)-4-{4-[(1S)-2,3-dihydro-1H-inden-1-ylamino]-7H-pyrrolo[2,3-d]-pyrimidin-7-yl}-2-hydroxycyclopentyl)ethanesulfonamide]
NS(=O)(=O)OC[C@@H]1C[C@@H](n2ccc3c(N[C@H]4CCc5c(F)cccc54)ncnc32)C[C@@H]1O [Compound I-61, [(1S,2S,4R)-4-(4-{[(1S)-4-fluoro-2,3-dihydro-1H-inden-1-yl]amino}-7H-pyrrolo[2,3-d]pyrimidin-7-yl)-2-hydroxycyclopentyl]methyl sulfamate]
NS(=O)(=O)OC[C@@H]1C[C@@H](n2ccc3c(N[C@H]4CCc5c(F)ccc(F)c54)ncnc32)C[C@@H]1O [Compound I-62, [(1S,2S,4R)-4-(4-{[(1S)-4,7-difluoro-2,3-dihydro-1H-inden-1-yl]amino}-7H-pyrrolo[2,3-d]pyrimidin-7-yl)-2-hydroxycyclopentyl]methyl sulfamate]
NS(=O)(=O)OC[C@@H]1C[C@@H](n2ccc3c(N[C@@H]4CCc5c(Cl)cccc54)ncnc32)C[C@@H]1O [Compound I-63, [(1S,2S,4R)-4-(4-{[(1R)-4-chloro-2,3-dihydro-1H-inden-1-yl]amino}-7H-pyrrolo[2,3-d]pyrimidin-7-yl)-2-hydroxycyclopentyl]methyl sulfamate]
NS(=O)(=O)OC[C@@H]1C[C@@H](n2ccc3c(N[C@H]4CCc5c(Cl)cccc54)ncnc32)C[C@@H]1O [Compound I-64, [(1S,2S,4R)-4-(4-{[(1S)-4-chloro-2,3-dihydro-1H-inden-1-yl]amino}-7H-pyrrolo[2,3-d]pyrimidin-7-yl)-2-hydroxycyclopentyl]methyl sulfamate]
NS(=O)(=O)OC[C@@H]1C[C@@H](n2ccc3c(N[C@H]4CCc5c(Br)cccc54)ncnc32)C[C@@H]1O [Compound I-65, [(1S,2S,4R)-4-(4-{[(1S)-4-bromo-2,3-dihydro-1H-inden-1-yl]amino}-7H-pyrrolo[2,3-d]pyrimidin-7-yl)-2-hydroxycyclopentyl]methyl sulfamate]
NS(=O)(=O)OC[C@@H]1C[C@@H](n2ccc3c(N[C@H]4CCc5cccc(F)c54)ncnc32)C[C@@H]1O [Compound I-66, [(1S,2S,4R)-4-(4-{[(1S)-7-fluoro-2,3-dihydro-1H-inden-1-yl]amino}-7H-pyrrolo[2,3-d]pyrimidin-7-yl)-2-hydroxycyclopentyl]methyl sulfamate]
CC1(C)C[C@H](Nc2ncnc3c2ccn3[C@@H]2C[C@@H](COS(N)(=O)=O)[C@@H](O)C2)c2ccc(Cl)cc21 [Compound I-67, [(1S,2S,4R)-4-(4-{[(1S)-5-chloro-3,3-dimethyl-2,3-dihydro-1H-inden-1-yl]amino)-7H-pyrrolo[2,3-d]pyrimidin-7-yl)-2-hydroxycyclopentyl]methyl sulfamate]
NS(=O)(=O)OC[C@@H]1C[C@@H](n2cc(F)c3c(N[C@H]4CCc5ccccc54)ncnc32)C[C@@H]1O [Compound I-68, ((1S,2S,4R)-4-{4-[(1S)-2,3-dihydro-1H-inden-1-ylamino]-5-fluoro-7H-pyrrolo[2,3-d]pyrimidin-7-yl}-2-hydroxycyclopentyl)methyl sulfamate]
